{
  "source": "PubChem BioAssay AID652280",
  "about": "(Broad Institute, 2013)",
  "note": "The inconclusive results got no clear call from the source; some entries with a clear call stand among them for comparison. Active and inactive are the calls of the source. How the calls were made is not given here.",
  "data": [
    {"experiment": "NIH/3T3 fibroblast cytotoxicity, dose response, cytotoxicity control, cell-based, plate reader, dry powder, set 2 (AID 652280)", "conditions": "NIH/3T3 mouse fibroblast toxicity; at 16 µM (top of the series) unless noted", "values": [
      {"smiles": "CN(C)C(=O)c1ccc(-c2ccc([C@H]3[C@H](CO)N4CCCCN(CC5CC5)C[C@@H]34)cc2)cc1", "activity change, negative = toxicity": "inactive: 24.4%"},
      {"smiles": "Cc1cccc(-c2ccc([C@H]3[C@H](CO)N4CCCCN(Cc5cncnc5)C[C@@H]34)cc2)c1", "activity change, negative = toxicity": "inconclusive: -3%"},
      {"smiles": "CC(c1ccc(Cl)cc1)N(C)C[C@@H]1CN(C(C)C)C(=O)c2cccc(NC(=O)c3ccncc3)c2O1", "note": "(some centres not stated)", "activity change, negative = toxicity": "inconclusive: -30%"},
      {"smiles": "CC(C)N1C[C@@H](CN(C)Cc2ccc(Cl)cc2)Oc2c(NC(=O)c3ccccc3)cccc2C1=O", "activity change, negative = toxicity": "inactive: 9.38%"},
      {"smiles": "CN(C)CC#Cc1cccc(-c2nc(C(=O)NCc3ccc4c(c3)OCO4)cc3c2[C@@H](CCO)N(S(=O)C(C)(C)C)C3)c1", "note": "(some centres not stated)", "activity change, negative = toxicity": "inactive: 0.74%"},
      {"smiles": "CC(C)N1C[C@@H](CN(C)Cc2ccc(Cl)cc2)Oc2c(NC(=O)c3cn(C)cn3)cccc2C1=O", "activity change, negative = toxicity": "inconclusive: -21.4%"},
      {"smiles": "Cc1ccccc1-c1ccc([C@H]2[C@H](CO)N3CCCCN(C(=O)CN4CCOCC4)C[C@@H]23)cc1", "activity change, negative = toxicity": "inconclusive: -20.5%"},
      {"smiles": "CCOC(=O)c1cc2c(c(-c3cccc(C#CCN(C)C)c3)n1)[C@H](CCO)N(S(=O)C(C)(C)C)C2", "note": "(some centres not stated)", "activity change, negative = toxicity": "inactive: -9.39%"},
      {"smiles": "CC(C)N1C[C@@H](C)[C@H](CN(C)Cc2cccc(Oc3ccccc3)c2)Oc2c(NC(=O)c3ccncc3)cccc2C1=O", "activity change, negative = toxicity": "inconclusive: -0.892%"},
      {"smiles": "C[C@H]1CN([C@@H](C)CO)C(=O)c2cccc(NC(=O)c3ccncc3)c2O[C@@H]1CN(C)Cc1ccc(Cl)cc1", "activity change, negative = toxicity": "inactive: -41.2%"},
      {"smiles": "CC(C)N1C[C@H](C)[C@@H](CN(C)Cc2ccc(Oc3ccccc3)cc2)Oc2c(cccc2-c2nnc(-c3ccncc3)o2)C1=O", "activity change, negative = toxicity": "inconclusive: -93.5%"},
      {"smiles": "CC(C)N1C[C@@H](CN(C)Cc2ccc(Cl)cc2)Oc2c(C(=O)Nc3ccncc3)cccc2C1=O", "activity change, negative = toxicity": "inactive: -18.4%"},
      {"smiles": "CC(C)N1C[C@@H](C)[C@H](CN(C)Cc2ccc(Oc3ccccc3)cc2)Oc2c(C(N)=O)cccc2C1=O", "activity change, negative = toxicity": "inconclusive: -7.91%"},
      {"smiles": "COc1ccc(C#Cc2cccc(-c3nc(C(=O)NCc4ccc5c(c4)OCO5)cc4c3[C@H](CCO)N(S(=O)C(C)(C)C)C4)c2)cc1OC", "note": "(some centres not stated)", "activity change, negative = toxicity": "inconclusive: -19%"},
      {"smiles": "COc1cccc(CN(C)C[C@H]2Oc3c(NC(=O)c4ccncc4)cccc3C(=O)N([C@@H](C)CO)C[C@@H]2C)c1", "activity change, negative = toxicity": "inactive: 6.03%"},
      {"smiles": "CC(C)N1C[C@@H](C)[C@H](CN(C)Cc2ccc(Oc3ccccc3)cc2)Oc2c(C#N)cccc2C1=O", "activity change, negative = toxicity": "inconclusive: -25%"},
      {"smiles": "C[C@@H](CO)N1CC[C@H](CNC(=O)OC(C)(C)C)Oc2c(cccc2[N+](=O)[O-])C1=O", "activity change, negative = toxicity": "inactive: 16.7%"},
      {"smiles": "C[C@H]1CN([C@@H](C)CO)C(=O)c2cccc(NC(=O)c3ccncc3)c2O[C@@H]1CN(C)Cc1ccc(Oc2ccccc2)cc1", "activity change, negative = toxicity": "inconclusive: -56.8%"},
      {"smiles": "C[C@H](CO)N1C[C@H](C)[C@H](CN(C)Cc2ccc(Oc3ccccc3)cc2)Oc2c(NC(=O)c3ccncc3)cccc2C1=O", "activity change, negative = toxicity": "inconclusive: -24.9%"},
      {"smiles": "O=C(CN1CCOCC1)N1CCCCN2[C@@H](CO)[C@H](c3ccc(-c4ccccc4)cc3)[C@@H]2C1", "activity change, negative = toxicity": "inactive: -1.37%"},
      {"smiles": "CC(C)N1CC2(CN(CCc3ccccc3)C2)Oc2c(NC(=O)c3ccncc3)cccc2C1=O", "activity change, negative = toxicity": "inconclusive: -46.6%"},
      {"smiles": "CC(C)N1CC2(CN(Cc3ccc(Cl)c(Cl)c3)C2)Oc2c(NC(=O)c3ccncc3)cccc2C1=O", "activity change, negative = toxicity": "inconclusive: 9.33%"},
      {"smiles": "CC(C)(C)[S@@](=O)N1Cc2cc(C(=O)NCc3ccc4c(c3)OCO4)nc(-c3cccc(-c4cccnc4)c3)c2[C@H]1CCO", "activity change, negative = toxicity": "inconclusive: -21.1% [at 18 µM]"},
      {"smiles": "CN(C)C(=O)c1ccc(-c2ccc([C@H]3[C@H](CO)N4CCCCN(Cc5cncnc5)C[C@@H]34)cc2)cc1", "activity change, negative = toxicity": "inactive: 10.1%"},
      {"smiles": "Cc1cc(C(=O)Nc2cccc3c2O[C@@H](CN(C)Cc2ccc(Oc4ccccc4)cc2)[C@H](C)CN([C@@H](C)CO)C3=O)n(C)n1", "activity change, negative = toxicity": "inconclusive: -21.7%"},
      {"smiles": "C[C@@H]1CN([C@@H](C)CO)C(=O)c2cccc(NC(=O)c3cnccn3)c2O[C@H]1CN(C)Cc1ccc(Oc2ccccc2)cc1", "activity change, negative = toxicity": "inconclusive: -11.8%"},
      {"smiles": "C[C@@H]1CN([C@H](C)CO)C(=O)c2cccc(NC(=O)c3ccncc3)c2O[C@@H]1CN(C)Cc1ccc(Oc2ccccc2)cc1", "activity change, negative = toxicity": "inconclusive: 2.2%"}
    ]}
  ]
}
